Here are results for one molecule from PMC5029699, “Landscape of activating cancer mutations in FGFR kinases and their differential responses to inhibitors in clinical use” (Oncotarget, 2016).

SMILES strings stand for the structures.

Assay [1] relates to NIH3T3 cells expressing FGFR3 N540K. The settings on record: N540K NIH3T3 cells vs FGFR3TACC3-fusion cells, in words. The procedure: (§1) For the cell viability assay in the presence of FGFR inhibitors, NIH3T3 cells transfected with the stated FGFR3 variants were plated in 96-well plates, 1000 cells per well. Twenty-four hours later the cells were treated with various concentrations of kinase inhibitor. Forty-eight hours later, fresh inhibitor was added and the cells incubated for 72 hours. Cell viability was measured through the addition of CellTiter-Glo (Promega) and luminenscence measured with a standard luminometer plate reader. Data were normalised and fitted to a log(inhibitor) vs. response curve (three parameters) with GraphPad Prism.

The test system of assay [2] is NIH3T3 cells expressing FGFR3 K650E. To be noted: K650E NIH3T3 cells vs FGFR3TACC3-fusion cells, in words. The procedure: as §1

As to `COc1cc(OC)cc(N(CCNC(C)C)c2ccc3ncc(-c4cnn(C)c4)nc3c2)c1` [JNJ42756493], the “effect of variant on inhibitor efficacy in cells” value in assay [1] and in assay [2] was “reduce efficacy” throughout.
